Laboratory results as given in PubChem BioAssay AID504834 (National Center for Advancing Translational Sciences (NCATS), 2011).
About 22,000 (6.9%) of roughly 320,000 compounds were called active. Inconclusive means that the source gave no clear call. Such entries were picked first, then a sample of the others. The call rests on the fitted dose curve; in most records, active means well fitted inhibition curve with a large enough effect; inconclusive means small, poorly fitted or top-dose-only effect, or another doubt; inactive means no such curve, though single readings can be large or run the other way. A potency beside an inconclusive call is a rough fit, not a confirmed value.
On the % scale 0 is the no-effect control and ±100 the full control effect; potency means the concentration at half of the fitted maximal effect.

Experiment: Primary qHTS for delayed death inhibitors of the malarial parasite plastid, 96 hour incubation
Conditions: P. falciparum luciferase reporter growth; series mostly up to 28.7 µM; activity change, negative = inhibition: at the top concentration
How it was run: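 Erythrocytes infected with luciferase-expressing P. falciparum were dispensed at 2% hematocrit and 0.05% parasitemia (final), then incubated with compounds 96 hours at 37 C in 5% CO2. Luminescence after detection reagent addition reported growth.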
With `CCO[C@@H]1OC(C(=O)Nc2ccccc2)=C[C@H](C2CC2)[C@H]1CCCO` the Potency was inconclusive: 20.8 µM [inhibitor, single point]. For `CN(C)c1ccc(C(=O)N2CCCC2)cc1`, the Potency was active: 11.7 µM. For `COc1cccc(CN(C)C(=O)CCN=C2NS(=O)(=O)c3ccccc32)c1OC`, the Potency was inconclusive: 0.294 µM [inhibitor, full curve, poor fit]. For `COc1ccc(CCNC(=O)c2c(-c3ccccc3Cl)noc2C)cc1`, the Potency was inconclusive: 9.28 µM [inhibitor, single point]. In the case of `Fc1ccc(NC(=S)N/N=C/c2ccc(F)c(F)c2)cc1`, the Potency was inconclusive: 18.5 µM [inhibitor, single point]. With `Cc1ccc(C)c(OCc2cc(C(=O)N3CCNC(=O)C3)no2)c1` the “activity change, negative = inhibition” value was inactive: 23.7%. For `Cc1ccnc(NS(=O)(=O)c2ccc(NC(=O)C3C4C=CC(C4)C3C(=O)O)cc2)n1` (stereo not drawn), the Potency was inconclusive: 13.1 µM [inhibitor, single point]. In the case of `Cc1ccc(NC(=O)c2cc(Cl)ccc2[N+](=O)[O-])cc1C`, the “activity change, negative = inhibition” value was inactive: 14.2%. With `COc1ccc(-c2nc(SCC(=O)NCc3ccco3)c(-c3ccccc3)[nH]2)cc1OC` the Potency was inconclusive: 7.38 µM [inhibitor, partial curve, poor fit]. With `COc1ccnc(Oc2ccc(F)cc2)c1C#N` the “activity change, negative = inhibition” value was inactive: 47.2%. With `CCOC(=O)c1cnc2c(cnn2C)c1NCCCn1ccnc1` the “activity change, negative = inhibition” value was inactive: 34.4%. With `O=C(Cc1ccccc1)NC(=S)Nc1ccc(OC(F)F)cc1` the Potency was inconclusive: 18.5 µM [inhibitor, single point]. In the case of `Cc1ccccc1C(=O)c1cccn1CC(=O)N1CCCCCC1`, the Potency was inconclusive: 3.7 µM [inhibitor, single point]. In the case of `COC(=O)C1=C(C)NC(=O)NC1c1ccc(-c2ccc(F)cc2)o1` (stereo not drawn), the Potency was inconclusive: 2.62 µM [inhibitor, full curve, poor fit]. In the case of `CCOC(=O)c1[nH]c(C)c(/C(O)=C2\C(=O)C(=O)N(CCN3CCOCC3)C2c2ccco2)c1C` (stereo not drawn), the “activity change, negative = inhibition” value was inactive: -3.53%. In the case of `Cc1ccc(-n2nc3c(=O)n(CC(=O)NC4CCCCC4)nc(C)c3c2C)cc1`, the Potency was inconclusive: 0.828 µM [inhibitor, full curve]. For `CC(C)n1ncc2c(C(=O)NCCc3ccc(F)cc3)cc(C3CC3)nc21`, the Potency was inconclusive: 6.57 µM [inhibitor, partial curve]. With `COc1ccc(-c2noc(N3CCC(C(=O)Nc4ccc(OC)cc4OC)CC3)n2)cc1` the “activity change, negative = inhibition” value was inactive: 17.8%. For `Cc1nn(-c2cccc(Cl)c2)c(Cl)c1/C=N/NC(=O)c1cccs1`, the Potency was inconclusive: 3.7 µM [inhibitor, partial curve, poor fit]. With `Oc1c(Cl)cc(Cl)cc1/C=N/c1nc(-c2ccc(Cl)cc2)cs1` the Potency was inconclusive: 2.94 µM [inhibitor, single point]. For `OC(c1cc(-c2ccc(C(F)(F)F)cc2)nc(C(F)(F)F)c1)C1CCCCN1` (stereo not drawn), the Potency was active: 0.0083 µM. With `CSc1nnnn1CCn1nnnc1SC` the Potency was inconclusive: 10.4 µM [inhibitor, single point]. With `Cc1ccc(-c2nn(-c3ccccc3)cc2CN(C)C(=O)CCC(=O)O)cc1C` the Potency was inconclusive: 8.28 µM [inhibitor, single point]. With `Cc1cccc(C)c1N1CCN(C(=O)c2ccc3c(c2)OCO3)CC1` the Potency was inconclusive: 18.5 µM [inhibitor, single point]. In the case of `COc1ccc(N(C)C(=O)c2oc(=O)c3ccccc3c2-c2ccccc2)c(OC)c1`, the Potency was inconclusive: 9.28 µM [inhibitor, single point]. With `O=C(COc1ccccc1)N=C1SC2CS(=O)(=O)CC2N1CCc1ccccc1` (stereo not drawn) the Potency was inconclusive: 13.1 µM [inhibitor, partial curve, poor fit]. With `COc1cccc(-n2cc(CNCc3cn(C)nc3-c3ccccc3F)cn2)c1` the Potency was inconclusive: 18.5 µM [inhibitor, single point]. For `O=[N+]([O-])c1cccc(OCc2cn3cccnc3n2)c1`, the Potency was inconclusive: 11.7 µM [inhibitor, single point]. For `CCOC(=O)N1CCN(C(=O)c2cn(C)c3ccc(S(=O)(=O)N(C)C4CCCCC4)cc3c2=O)CC1`, the Potency was inconclusive: 18.5 µM [inhibitor, single point]. In the case of `Cn1nc(C(=O)Nc2ccc(Br)cc2)cc1C(=O)Nc1ccc(Br)cc1`, the Potency was inconclusive: 10.4 µM [inhibitor, partial curve]. With `COc1cccc(/C=C/C(=O)OCC(=O)c2cc(C)n(CC3CCCO3)c2C)c1OC` (stereo not drawn) the Potency was inconclusive: 18.5 µM [inhibitor, single point]. For `O=S(=O)(c1ccc(OCC(O)CN2CCN(c3ccccc3Cl)CC2)cc1)N1CCOCC1` (stereo not drawn), the Potency was inconclusive: 10.4 µM [inhibitor, partial curve]. With `CC1=C(C(=O)OCc2ccccc2)C(c2cccnc2)n2nnnc2N1` (stereo not drawn) the Potency was inconclusive: 0.657 µM [inhibitor, full curve, poor fit]. With `CCOc1ccc(C2C(C#N)=C(N)Oc3cc(C)n(CCN(C)C)c(=O)c32)cc1OCC` (stereo not drawn) the Potency was active: 11.7 µM. With `COc1cccc(OCc2cc(C3Nc4ccccc4C(=O)N3Cc3ccco3)ccc2OC)c1` (stereo not drawn) the “activity change, negative = inhibition” value was inactive: -7.06%. With `CC(NC(=O)c1cccnc1)C(c1cccs1)N1CCN(c2ccccc2F)CC1` (stereo not drawn) the Potency was inconclusive: 11.7 µM [inhibitor, single point]. For `CCCc1ccc(C(=O)NNc2cccc(C)c2)cc1`, the Potency was inconclusive: 2.08 µM [inhibitor, partial curve, poor fit]. In the case of `O=C(CCCn1c(=S)[nH]c2ccccc2c1=O)NC1CCCC1`, the Potency was active: 0.522 µM. With `CCOc1cccc(/C=N/NC(=S)Nc2cc(S(=O)(=O)N3CCOCC3)ccc2N2CCOCC2)c1O` the Potency was inconclusive: 3.7 µM [inhibitor, single point]. For `CC1Cc2cc(S(=O)(=O)CCC(=O)NC3CCCCC3)ccc2N1C(=O)C1CC1` (stereo not drawn), the Potency was inconclusive: 18.5 µM [inhibitor, single point]. For `Cc1ccc(-c2nc(NC(=O)CSc3nnnn3-c3ccccc3)ns2)cc1`, the Potency was inconclusive: 10.4 µM [inhibitor, partial curve, poor fit]. In the case of `CN(C(=O)CN1CC=C(c2ccccc2)CC1)c1c(N)n(Cc2ccccc2)c(=O)[nH]c1=O`, the Potency was inconclusive: 2.94 µM [inhibitor, full curve]. For `COc1ccc(C(=O)NC2CCc3ccccc32)cc1OC1CCN(C(C)C)CC1` (stereo not drawn), the Potency was inconclusive: 18.5 µM [inhibitor, single point]. In the case of `NC(=O)c1ccc2c(=O)c(O)c(-c3cc(Cl)c(N)c(Cl)c3)[nH]c2c1`, the “activity change, negative = inhibition” value was inactive: 26.9%. In the case of `O=C1CC(C2CCCO2)C(=O)N1c1cccc(Cl)c1` (stereo not drawn), the Potency was inconclusive: 0.104 µM [inhibitor, full curve, poor fit]. In the case of `COc1cc(-c2cc(=O)c3c(O)c(OC)c(OC)cc3o2)cc(OC)c1O`, the “activity change, negative = inhibition” value was inactive: 2.75%. In the case of `CCOC(=O)N1CCN(CC(=O)Nc2ccc(F)c(F)c2)CC1`, the “activity change, negative = inhibition” value was inactive: 16.6%. For `CN1CCN(C(=O)/C(=C/c2cn(S(=O)(=O)N(C)C)c3ccccc23)NC(=O)c2ccccc2)CC1`, the Potency was active: 11.7 µM. In the case of `CSc1ccc(CN2CCSCC2)cc1`, the “activity change, negative = inhibition” value was inactive: 29.7%. In the case of `COc1ccc(C)cc1NC(=O)C(c1ccccc1)N1CCN(CC(=O)NC2CC2)CC1` (stereo not drawn), the Potency was active: 2.08 µM. With `Nc1cccc(S(=O)(=O)c2cccc(N)c2)c1` the Potency was inconclusive: 18.5 µM [inhibitor, single point]. For `Cn1c(C2CCCCC2)nc2c1c(=O)[nH]c(=O)n2Cc1ccccc1`, the Potency was inconclusive: 18.5 µM [inhibitor, single point]. With `CCOC(=O)NC1C=CS(=O)(=O)C1` (stereo not drawn) the Potency was inconclusive: 10.4 µM [inhibitor, single point]. With `Cc1cc2[nH]c3ccccc3c2c(C)n1` the Potency was active: 2.08 µM. With `CCOC(=O)c1c(NC(=O)CSc2nc3cc(Cl)ccc3c(=O)n2Cc2ccco2)sc(C(=O)N(C)C)c1C` the Potency was active: 4.15 µM. With `CN1CCN(c2ncnc3c2[nH]c2ccc(F)cc23)CC1` the Potency was inconclusive: 3.7 µM [inhibitor, single point]. For `CCOC(=O)C1CCCN(C(=O)Nc2cccc(Cl)c2)C1` (stereo not drawn), the Potency was inconclusive: 11.7 µM [inhibitor, partial curve]. With `CN(Cc1nc(-c2ccncc2)no1)S(=O)(=O)c1ccc(Cl)cc1` the Potency was inconclusive: 1.85 µM [inhibitor, full curve]. In the case of `CCOc1ccc(-c2cn(-c3cccc(SC)c3)c(=O)[nH]2)cc1`, the Potency was inconclusive: 11.7 µM [inhibitor, single point]. For `NS(=O)(=O)c1ccc(NC(=S)NCc2ccccc2)cc1`, the Potency was inconclusive: 8.28 µM [inhibitor, partial curve, poor fit]. For `COc1ccccc1NC(=O)Nc1ccc(F)c(F)c1`, the activity change, negative = inhibition was inactive: 16.4% [at 5.75 µM]. In the case of `O=C(Cc1ccccc1)c1nnc(-c2ccccc2)o1`, the Potency was inconclusive: 4.15 µM [inhibitor, single point]. In the case of `Clc1ccc(-c2nnc(-c3cccc4ccccc34)o2)cc1Cl`, the “activity change, negative = inhibition” value was inactive: 76.4%. For `CCOC(=O)c1c(C)[nH]c(C(=O)OCC(=O)N(C)CC(=O)Nc2ccccc2Cl)c1C`, the “activity change, negative = inhibition” value was inactive: -2.42%. With `COc1ccc(-n2c(SCC(=O)Nc3cccc4ccccc34)nc(O)cc2=O)cc1` the Potency was active: 0.294 µM. In the case of `C/C(=N/NS(=O)(=O)c1cc(C)ccc1C)c1c[nH]c2ccccc12`, the Potency was inconclusive: 18.5 µM [inhibitor, single point]. For `Cc1c(Cl)cccc1NC(=O)c1cc(-c2ccccc2O)n[nH]1`, the Potency was inconclusive: 18.5 µM [inhibitor, single point]. In the case of `CC1CCCCC1NC(=O)C1CCC(CNS(=O)(=O)c2ccc(F)cc2)CC1` (stereo not drawn), the Potency was inconclusive: 13.1 µM [inhibitor, partial curve].
